Source: article PMC9045296 (Microbiology Spectrum, 2022)

Experiment: general procedure: Fmoc solid-phase peptide synthesis; Wang resin 100–200 mesh; HCTU/DIEA
Conditions: whole synthesis, scale of the general procedure 0.05 to 0.1 mmol

Sequence	crude yield [%]	final purity (method not given) [%]	isolated yield [%]
SESGIAWGG	98.76	70.5	34.2
SGIAWGGIK	97.54	81.1	66.3

Where a sequence shows no end group, the ends are not given.
